The assay deals with BDF1 mice, P815 leukemia ip, survival T/C. Kind of assay: NCI In Vivo Anticancer Drug Screen. Data for tumor model P815 Mast Cell Leukemia (Ascitic) (intraperitoneal) in B6D2F1 (BDF1) mice. The following applies: higher T/C = longer survival. How it is done:
The antitumor activity of compounds was measured in mice bearing transplantable tumors. Survival or tumor size were measured and the results are expressed as the measurement made in the treated group (T) divided by the measurement made in the vehicle treated control group (C). The tumor model used in this assay is P815 Mast Cell Leukemia (Ascitic) (intraperitoneal) in B6D2F1 (BDF1) mice

The mark [1] stands for this setting: T/C endpoint: survival time, mean or median, dose: 200.0 mg/kg/injection, schedule: Q01DX010 (ip), vehicle: saline.

Molecules are shown by their SMILES. The list is a part of this screen's results and no random one: it is rich in T/C values a quarter to a half above the control, in often repeated tests (any T/C) and in doses without a T/C. Further doses and runs are listed elsewhere. T/C gives the treated animals as a percentage of the vehicle group. Some entries give survivors of the animals treated and no T/C: the source files T/C as zero there, which appears to mark a toxic dose or a test without result, not a measured value. Some doses without a T/C left all or most animals alive at the check, yet need not have been tolerated: survival well below the control is almost never listed, so the zero probably covers shortened survival too. Counts of survivors are from the toxicity check (mostly the fifth day) where no day follows; animals may have died later. Schedule codes are those of the source, taken here to give the interval after Q, in days (D) or hours (H), and the number of doses after X. Some entries hold several experiments; their values stand side by side, smallest first. Where survival is the endpoint, this PubChem deposit counts one and a half times the control or more as active, and values a quarter to a half above the control carry no call in these data; other NCI protocols may use other cut-offs. Starred links: 1 amine or outer side, 2 acyl side, 3 side chain; linkers in the order of their positions; H or OH if unused. Positions of bridges follow the written chain, without caps; N, C: chain ends. Non-standard residues stand in square brackets, D forms with d. Residues, ends and D or L forms follow the SMILES beside them. Chains are numbered I, II in the order given. Actinocin(9to1) = Cc1c2oc3c(C)ccc(C(=O)[*:1])c3nc-2c(C(=O)[*:2])c(N)c1=O; NMeV = CN[CH](C(=O)O)C(C)C; Aze = O=C(O)[CH]1CCN1; Sar = CNCC(=O)O

As for `Nc1nc(F)nc2c1ncn2C1OC(CO)C(O)C1O` (configuration not stated), the survivor count is 10 of 10 (T/C endpoint: survival time, mean or median, dose: 3.0 mg/kg/injection, schedule: Q01DX015 (ip), vehicle: saline) and 8 of 10 (T/C endpoint: survival time, mean or median, dose: 6.0 mg/kg/injection, schedule: Q01DX015 (ip), vehicle: saline). In the case of `Oc1ccccc1C(Nc1nc2ccccc2s1)c1ccc2cccnc2c1O` (configuration not stated), the survivor count (T/C endpoint: survival time, mean or median, dose: 500.0 mg/kg/injection, schedule: Q01DX015 (ip), vehicle: other) is on record as 9 of 10. Turning to `COc1cc([C@@H]2c3cc4c(cc3[C@H](O)[C@H]3COC(=O)[C@@H]23)OCO4)cc(OC)c1OC`, under “T/C endpoint: survival time, mean or median, dose: 80.0 mg/kg/injection, schedule: Q01DX015 (ip), vehicle: carboxymethylcellulose (CMC)”, the survivor count is reported as 10 of 10. Regarding `COc1ccc(C[n+]2cc([O-])on2)cc1`, the T/C (T/C endpoint: survival time, mean or median, dose: 50.0 mg/kg/injection, schedule: Q01DX015 (ip), vehicle: carboxymethylcellulose (CMC)) was 125 % of control. With `Nc1cc(C(=O)Nc2ccc(C3=NCCN3)cc2)cc(C(=O)Nc2ccc(C3=NCCN3)cc2)c1`, the survivor count (T/C endpoint: survival time, mean or median, dose: 128.0 mg/kg/injection, schedule: Q01DX010 (ip), vehicle: saline) is 2 of 6. As for `C[C@@H]1C[C@H]2CC[C@H](O2)[C@H](C)C(=O)O[C@@H](C)C[C@@H]2CC[C@@H](O2)[C@@H](C)C(=O)O[C@H](C)C[C@H]2CC[C@H](O2)[C@H](C)C(=O)O[C@@H](C)C[C@@H]2CC[C@@H](O2)[C@@H](C)C(=O)O1`, the survivor count is, setting by setting: (T/C endpoint: survival time, mean or median, dose: 45.0 mg/kg/injection, schedule: Q01DX015 (ip), vehicle: other) 10 of 10; (T/C endpoint: survival time, mean or median, dose: 90.0 mg/kg/injection, schedule: Q01DX015 (ip), vehicle: other) 10 of 10; (T/C endpoint: survival time, mean or median, dose: 180.0 mg/kg/injection, schedule: Q01DX015 (ip), vehicle: other) 10 of 10; (T/C endpoint: survival time, mean or median, dose: 360.0 mg/kg/injection, schedule: Q01DX015 (ip), vehicle: other) 10 of 10. As for `O=C(Nc1cccc(C(=O)Nc2ccc(C3=NCCN3)cc2)c1)c1ccc(C2=NCCN2)cc1`, the survivor count is, setting by setting: (T/C endpoint: survival time, mean or median, dose: 80.0 mg/kg/injection, schedule: Q01DX010 (ip), vehicle: saline) 3 of 6; (T/C endpoint: survival time, mean or median, dose: 120.0 mg/kg/injection, schedule: Q01DX010 (ip), vehicle: saline) 1 of 6; (T/C endpoint: survival time, mean or median, dose: 180.0 mg/kg/injection, schedule: Q01DX010 (ip), vehicle: saline) 0 of 6.

On to `N#[N+]c1cnc([O-])[nH]c1=O`, for which, for the setting “T/C endpoint: survival time, mean or median, dose: 1.25 mg/kg/injection, schedule: Q01DX010 (ip), vehicle: saline”, the T/C was 138 % of control. In the case of `CC(C)CNS(=O)(=O)c1ncnc2nc[nH]c12`, the survivor count runs as follows: (T/C endpoint: survival time, mean or median, dose: 75.0 mg/kg/injection, schedule: Q01DX015 (ip), vehicle: carboxymethylcellulose (CMC)) 10 of 10; (T/C endpoint: survival time, mean or median, dose: 150.0 mg/kg/injection, schedule: Q01DX015 (ip), vehicle: carboxymethylcellulose (CMC)) 5 of 10. As for `O=C(Nc1ccc(C2=NCCN2)cc1)c1cc(C(=O)Nc2ccc(C3=NCCN3)cc2)cc([N+](=O)[O-])c1`, for the setting “T/C endpoint: survival time, mean or median, dose: 512.0 mg/kg/injection, schedule: Q01DX010 (ip), vehicle: saline”, the survivor count is given as 6 of 6. `N=C(N)SCc1c2ccccc2c(CSC(=N)N)c2ccccc12`: the T/C is 140 % of control (T/C endpoint: survival time, mean or median, dose: 2.5 mg/kg/injection, schedule: Q01DX010 (ip), vehicle: saline); 125 % of control (T/C endpoint: survival time, mean or median, dose: 5.0 mg/kg/injection, schedule: Q01DX010 (ip), vehicle: saline); 145 % of control (T/C endpoint: survival time, mean or median, dose: 20.0 mg/kg/injection, schedule: Q01DX010 (ip), vehicle: saline).

On to `O=c1cnn(C2OC(CO)C(O)C2O)c(=O)[nH]1` (configuration not stated), for which the T/C is 133 % of control under setting [1] and 133 % of control (T/C endpoint: survival time, mean or median, dose: 400.0 mg/kg/injection, schedule: Q01DX010 (ip), vehicle: saline). For the molecule `CCCNc1ncnc2[nH]ncc12`, for the setting “T/C endpoint: survival time, mean or median, dose: 25.0 mg/kg/injection, schedule: Q01DX010 (ip), vehicle: saline”, the survivor count is on record as 6 of 6.

As to `CN(C)[C@@H]1C(=O)C(C(N)=O)=C(O)[C@@]2(O)C(=O)C3=C(O)c4c(O)cccc4C[C@H]3C[C@@H]12`, the T/C (T/C endpoint: survival time, mean or median, dose: 15.0 mg/kg/injection, schedule: Q01DX015 (ip), vehicle: alkali diluted with saline) is 135 % of control. For the same molecule, the survivor count was 10 of 10 (T/C endpoint: survival time, mean or median, dose: 60.0 mg/kg/injection, schedule: Q01DX015 (ip), vehicle: alkali diluted with saline) and 3 of 10 (T/C endpoint: survival time, mean or median, dose: 120.0 mg/kg/injection, schedule: Q01DX015 (ip), vehicle: alkali diluted with saline).

Consider `NOCc1cscn1`, for which the survivor count (T/C endpoint: median survival time, dose: 100.0 mg/kg/injection, schedule: Q01DX010 (ip), vehicle: saline sonified) was 6 of 6 and the survivor count (T/C endpoint: median survival time, dose: 200.0 mg/kg/injection, schedule: Q01DX010 (ip), vehicle: saline sonified) is 2 of 6. On to `CC(=O)O[C@]1(C(C)=O)CC[C@H]2[C@@H]3C[C@H](C)C4=CC(=O)C=C[C@]4(C)[C@@]3(F)[C@@H](O)C[C@@]21C`, for which the survivor count (T/C endpoint: survival time, mean or median, dose: 50.0 mg/kg/injection, schedule: Q01DX010 (sc), vehicle: steroid suspending solution) was 5 of 6. For `Cc1c2oc3c(C)ccc(C(=O)NC4C(=O)NC(C(C)C)C(=O)N5CCC5C(=O)N(C)CC(=O)N(C)C(C(C)C)C(=O)OC4C)c3nc-2c(C(=O)NC2C(=O)NC(C(C)C)C(=O)N3CCC3C(=O)N(C)CC(=O)N(C)C(C(C)C)C(=O)OC2C)c(N)c1=O` (configuration not stated) (I: TV[Aze][Sar][NMeV] / II: TV[Aze][Sar][NMeV]; ester I:1-I:C, II:1-II:C; linker I:N-II:N via Actinocin(9to1); configuration not given here), for the setting “T/C endpoint: median survival time, dose: 2080.0 micrograms/kg/injection, schedule: Q01DX001 (ip), vehicle: saline + alcohol”, the survivor count was 7 of 8. Take `CCN(CC)CCNc1ccc(C)c2sc3ccccc3c(=O)c12`: the survivor count (T/C endpoint: survival time, mean or median, dose: 100.0 mg/kg/injection, schedule: Q01DX010 (ip), vehicle: saline) is 5 of 6 and 6 of 6; the survivor count under setting [1] is 5 of 6 and 6 of 6.

(Values after PubChem BioAssay AID318 (DTP/NCI, 2004).)
